This note sets out measurements from publication PMC11346181.

Protein sequences, listed by entry. Tags and fused reporters are not part of them.
UniProt Q8BK63: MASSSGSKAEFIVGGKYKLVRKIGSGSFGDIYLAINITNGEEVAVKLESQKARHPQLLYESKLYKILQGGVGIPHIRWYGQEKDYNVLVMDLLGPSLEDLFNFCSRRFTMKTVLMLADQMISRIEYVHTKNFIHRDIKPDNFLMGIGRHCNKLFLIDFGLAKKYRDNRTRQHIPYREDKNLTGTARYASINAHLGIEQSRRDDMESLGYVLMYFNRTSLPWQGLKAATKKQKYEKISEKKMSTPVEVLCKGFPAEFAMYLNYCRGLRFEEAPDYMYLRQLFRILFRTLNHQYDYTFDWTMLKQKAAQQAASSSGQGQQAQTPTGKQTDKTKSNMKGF

No constants are given. Whether binding was seen depends on the method and setting. In cells and extracts the contact can be indirect. Some results given as binding are weak or reduced against the parent protein; the word gives no strength.

The target in the assay is Casein kinase 1α (mouse (endogenous in ovarian tissue and primary ovarian granulosa cells)) (UniProt Q8BK63). The experiment in a line: co-IP; ovarian tissues and primary ovarian GCs lysed in precooled NP40 buffer; 500 μg sample with 2 μg anti-CK1α antibody or anti-IgG antibody for 2 h, protein A/G agarose beads overnight at 4 °C, 5 washes with NP40 buffer, analysed by WB.

“RAF1 (from UniProt Q99N57 1-648) (enzyme)”: the binding entry is on record as “binds”.
